Experimental data: the supplement of paper PMC6411743
± gives the standard deviation of the averaged measurements. This is one part of the list.

The chains behind the UniProt entries cited, without tags or fusion partners. Where a name states a change or a piece, a line headed by the entry shows the natural chain unless it says otherwise.
UniProt Q14865: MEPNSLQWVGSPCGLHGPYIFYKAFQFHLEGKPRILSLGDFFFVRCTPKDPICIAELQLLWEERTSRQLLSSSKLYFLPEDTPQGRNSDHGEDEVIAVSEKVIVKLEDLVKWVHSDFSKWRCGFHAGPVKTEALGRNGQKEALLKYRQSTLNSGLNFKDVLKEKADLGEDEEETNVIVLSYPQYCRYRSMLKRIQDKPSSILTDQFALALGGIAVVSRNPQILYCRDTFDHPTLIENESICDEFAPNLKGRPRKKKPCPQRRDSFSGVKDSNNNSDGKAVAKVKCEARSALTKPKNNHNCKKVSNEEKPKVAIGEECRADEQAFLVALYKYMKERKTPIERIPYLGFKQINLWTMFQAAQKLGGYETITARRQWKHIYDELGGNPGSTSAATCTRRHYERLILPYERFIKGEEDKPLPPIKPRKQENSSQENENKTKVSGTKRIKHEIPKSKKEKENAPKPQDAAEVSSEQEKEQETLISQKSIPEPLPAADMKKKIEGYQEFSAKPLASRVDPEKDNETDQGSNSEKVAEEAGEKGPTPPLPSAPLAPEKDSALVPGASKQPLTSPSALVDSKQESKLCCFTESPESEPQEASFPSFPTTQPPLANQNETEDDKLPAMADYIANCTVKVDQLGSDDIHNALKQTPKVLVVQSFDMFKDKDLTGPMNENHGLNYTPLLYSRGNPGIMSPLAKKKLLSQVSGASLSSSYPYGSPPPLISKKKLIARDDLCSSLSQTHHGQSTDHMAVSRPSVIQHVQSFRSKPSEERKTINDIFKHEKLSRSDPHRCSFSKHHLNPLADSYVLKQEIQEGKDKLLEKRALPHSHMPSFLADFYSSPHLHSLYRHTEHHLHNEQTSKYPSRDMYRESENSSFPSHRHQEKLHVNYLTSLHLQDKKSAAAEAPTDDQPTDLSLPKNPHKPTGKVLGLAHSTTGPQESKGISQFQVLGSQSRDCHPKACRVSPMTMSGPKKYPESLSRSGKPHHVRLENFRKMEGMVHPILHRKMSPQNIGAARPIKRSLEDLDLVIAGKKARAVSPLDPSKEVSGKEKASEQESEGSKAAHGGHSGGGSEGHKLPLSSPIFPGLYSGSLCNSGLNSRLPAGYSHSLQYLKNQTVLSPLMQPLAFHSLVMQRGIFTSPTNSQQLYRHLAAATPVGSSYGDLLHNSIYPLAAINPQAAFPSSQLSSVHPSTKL
UniProt Q5SQI0: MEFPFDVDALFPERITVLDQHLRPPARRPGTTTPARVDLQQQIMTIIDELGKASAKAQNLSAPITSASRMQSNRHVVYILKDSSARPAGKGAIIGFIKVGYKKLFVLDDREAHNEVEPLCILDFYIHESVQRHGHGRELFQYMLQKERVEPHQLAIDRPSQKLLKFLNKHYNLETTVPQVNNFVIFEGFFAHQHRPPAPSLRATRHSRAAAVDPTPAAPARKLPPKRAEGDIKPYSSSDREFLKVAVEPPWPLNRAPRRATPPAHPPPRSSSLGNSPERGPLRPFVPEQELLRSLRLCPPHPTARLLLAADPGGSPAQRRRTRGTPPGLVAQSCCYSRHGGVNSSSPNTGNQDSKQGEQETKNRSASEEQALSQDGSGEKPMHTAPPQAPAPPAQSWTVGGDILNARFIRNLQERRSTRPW
UniProt Q3SXM5: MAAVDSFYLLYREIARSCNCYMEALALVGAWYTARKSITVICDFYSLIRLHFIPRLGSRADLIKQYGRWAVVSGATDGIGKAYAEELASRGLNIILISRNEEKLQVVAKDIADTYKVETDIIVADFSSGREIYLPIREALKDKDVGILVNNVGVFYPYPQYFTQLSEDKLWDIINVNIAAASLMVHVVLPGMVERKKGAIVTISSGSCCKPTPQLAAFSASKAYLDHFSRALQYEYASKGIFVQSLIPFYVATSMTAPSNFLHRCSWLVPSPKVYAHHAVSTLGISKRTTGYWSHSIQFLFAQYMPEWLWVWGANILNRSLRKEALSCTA
UniProt Q5T200: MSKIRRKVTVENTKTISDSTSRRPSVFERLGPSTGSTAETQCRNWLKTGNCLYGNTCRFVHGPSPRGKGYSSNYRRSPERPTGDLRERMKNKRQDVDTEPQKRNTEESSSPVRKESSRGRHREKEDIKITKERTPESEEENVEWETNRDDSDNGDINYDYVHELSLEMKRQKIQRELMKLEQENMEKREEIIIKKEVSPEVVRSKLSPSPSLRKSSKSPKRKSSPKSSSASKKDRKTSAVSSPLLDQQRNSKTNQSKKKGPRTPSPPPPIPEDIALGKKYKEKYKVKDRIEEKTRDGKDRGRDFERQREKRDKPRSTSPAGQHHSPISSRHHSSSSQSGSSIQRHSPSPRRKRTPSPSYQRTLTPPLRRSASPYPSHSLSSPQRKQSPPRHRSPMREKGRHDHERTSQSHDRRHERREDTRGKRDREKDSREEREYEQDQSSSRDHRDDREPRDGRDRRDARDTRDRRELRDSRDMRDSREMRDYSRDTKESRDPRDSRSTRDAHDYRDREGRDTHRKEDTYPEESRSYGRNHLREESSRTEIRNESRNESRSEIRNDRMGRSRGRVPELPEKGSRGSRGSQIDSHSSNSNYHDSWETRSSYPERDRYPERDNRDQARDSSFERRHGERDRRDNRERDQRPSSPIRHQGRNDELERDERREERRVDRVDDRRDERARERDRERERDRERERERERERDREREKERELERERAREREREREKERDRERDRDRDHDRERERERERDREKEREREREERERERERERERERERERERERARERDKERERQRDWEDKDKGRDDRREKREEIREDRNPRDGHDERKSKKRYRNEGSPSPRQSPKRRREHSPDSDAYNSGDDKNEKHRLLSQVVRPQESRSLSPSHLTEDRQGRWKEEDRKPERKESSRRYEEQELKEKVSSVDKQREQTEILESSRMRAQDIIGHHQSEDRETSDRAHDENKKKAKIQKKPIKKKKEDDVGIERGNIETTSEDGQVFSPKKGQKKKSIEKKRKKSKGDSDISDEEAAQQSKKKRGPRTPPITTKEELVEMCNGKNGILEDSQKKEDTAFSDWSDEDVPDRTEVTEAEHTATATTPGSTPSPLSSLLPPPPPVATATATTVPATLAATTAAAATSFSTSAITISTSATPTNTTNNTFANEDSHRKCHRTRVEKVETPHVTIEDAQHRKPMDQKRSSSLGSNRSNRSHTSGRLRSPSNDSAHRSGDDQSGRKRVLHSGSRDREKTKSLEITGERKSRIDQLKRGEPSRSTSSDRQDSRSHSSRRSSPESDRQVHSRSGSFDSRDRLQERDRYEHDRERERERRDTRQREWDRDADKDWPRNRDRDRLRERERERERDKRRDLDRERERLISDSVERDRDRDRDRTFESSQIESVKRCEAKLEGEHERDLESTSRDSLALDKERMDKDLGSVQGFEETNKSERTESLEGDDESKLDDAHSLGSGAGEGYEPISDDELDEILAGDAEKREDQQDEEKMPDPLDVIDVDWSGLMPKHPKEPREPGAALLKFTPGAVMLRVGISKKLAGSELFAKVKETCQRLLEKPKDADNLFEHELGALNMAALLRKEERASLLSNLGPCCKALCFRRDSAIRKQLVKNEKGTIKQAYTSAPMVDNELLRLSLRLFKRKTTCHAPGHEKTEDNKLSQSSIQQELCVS
UniProt Q53S33: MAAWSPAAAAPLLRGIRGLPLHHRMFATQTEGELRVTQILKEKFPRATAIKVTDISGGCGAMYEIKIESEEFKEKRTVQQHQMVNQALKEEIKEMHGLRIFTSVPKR
UniProt Q14693: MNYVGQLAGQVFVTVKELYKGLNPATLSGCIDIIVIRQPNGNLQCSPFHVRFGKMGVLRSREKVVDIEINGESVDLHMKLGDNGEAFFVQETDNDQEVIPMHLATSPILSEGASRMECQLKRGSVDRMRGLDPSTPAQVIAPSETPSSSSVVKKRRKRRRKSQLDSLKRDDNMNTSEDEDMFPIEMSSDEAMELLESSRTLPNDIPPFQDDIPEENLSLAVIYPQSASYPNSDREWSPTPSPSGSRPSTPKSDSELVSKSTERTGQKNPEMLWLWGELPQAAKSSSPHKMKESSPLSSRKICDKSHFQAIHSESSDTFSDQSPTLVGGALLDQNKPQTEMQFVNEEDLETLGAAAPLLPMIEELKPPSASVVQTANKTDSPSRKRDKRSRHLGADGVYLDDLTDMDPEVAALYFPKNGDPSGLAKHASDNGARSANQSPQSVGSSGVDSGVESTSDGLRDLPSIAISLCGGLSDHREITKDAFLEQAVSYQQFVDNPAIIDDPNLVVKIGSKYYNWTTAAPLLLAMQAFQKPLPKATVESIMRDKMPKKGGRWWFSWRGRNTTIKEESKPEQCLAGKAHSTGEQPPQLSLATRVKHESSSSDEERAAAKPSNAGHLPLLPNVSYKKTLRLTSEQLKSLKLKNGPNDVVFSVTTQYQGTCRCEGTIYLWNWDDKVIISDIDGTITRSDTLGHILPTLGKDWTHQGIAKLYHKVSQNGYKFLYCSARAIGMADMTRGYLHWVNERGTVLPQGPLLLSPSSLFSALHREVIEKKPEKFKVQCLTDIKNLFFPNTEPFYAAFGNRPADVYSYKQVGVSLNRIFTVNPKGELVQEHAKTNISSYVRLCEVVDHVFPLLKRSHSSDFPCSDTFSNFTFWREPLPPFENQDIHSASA
UniProt Q16401: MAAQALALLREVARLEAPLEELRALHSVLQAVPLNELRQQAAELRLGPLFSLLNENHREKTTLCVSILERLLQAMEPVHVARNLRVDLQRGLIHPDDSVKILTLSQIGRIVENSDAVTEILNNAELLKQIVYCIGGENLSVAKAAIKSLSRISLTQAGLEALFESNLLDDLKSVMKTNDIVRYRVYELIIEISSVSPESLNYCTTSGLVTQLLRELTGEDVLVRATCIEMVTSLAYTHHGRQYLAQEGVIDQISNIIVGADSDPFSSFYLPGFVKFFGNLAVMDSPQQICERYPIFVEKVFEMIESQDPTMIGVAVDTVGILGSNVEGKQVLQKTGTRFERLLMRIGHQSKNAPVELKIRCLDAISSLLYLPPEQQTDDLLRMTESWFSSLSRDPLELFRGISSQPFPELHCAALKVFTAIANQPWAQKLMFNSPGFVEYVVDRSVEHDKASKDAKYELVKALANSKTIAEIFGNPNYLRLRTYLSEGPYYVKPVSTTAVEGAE
UniProt Q4KMQ2: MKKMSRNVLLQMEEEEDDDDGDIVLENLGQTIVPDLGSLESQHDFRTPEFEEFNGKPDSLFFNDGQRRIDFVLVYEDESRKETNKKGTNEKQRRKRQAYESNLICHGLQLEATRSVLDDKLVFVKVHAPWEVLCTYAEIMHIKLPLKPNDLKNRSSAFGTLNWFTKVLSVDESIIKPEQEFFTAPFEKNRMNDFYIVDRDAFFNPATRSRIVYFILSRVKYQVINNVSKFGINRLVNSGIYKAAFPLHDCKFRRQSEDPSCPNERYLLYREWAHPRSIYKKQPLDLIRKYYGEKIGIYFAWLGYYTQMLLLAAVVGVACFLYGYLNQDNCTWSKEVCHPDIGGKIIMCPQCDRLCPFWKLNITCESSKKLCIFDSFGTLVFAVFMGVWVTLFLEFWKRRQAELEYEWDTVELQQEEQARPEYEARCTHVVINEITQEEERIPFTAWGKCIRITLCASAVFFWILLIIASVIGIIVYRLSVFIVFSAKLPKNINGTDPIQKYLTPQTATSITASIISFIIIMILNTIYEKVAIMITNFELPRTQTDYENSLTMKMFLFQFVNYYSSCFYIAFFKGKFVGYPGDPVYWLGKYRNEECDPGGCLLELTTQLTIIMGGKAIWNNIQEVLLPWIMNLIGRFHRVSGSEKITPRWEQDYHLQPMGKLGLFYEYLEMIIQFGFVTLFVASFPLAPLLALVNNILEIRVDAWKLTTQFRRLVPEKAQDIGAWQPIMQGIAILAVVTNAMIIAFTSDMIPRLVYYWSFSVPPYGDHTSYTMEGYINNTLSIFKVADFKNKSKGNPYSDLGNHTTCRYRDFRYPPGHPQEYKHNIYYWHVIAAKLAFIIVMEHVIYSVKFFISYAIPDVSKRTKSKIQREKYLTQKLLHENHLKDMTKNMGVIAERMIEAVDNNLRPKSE
UniProt Q15843, whole entry: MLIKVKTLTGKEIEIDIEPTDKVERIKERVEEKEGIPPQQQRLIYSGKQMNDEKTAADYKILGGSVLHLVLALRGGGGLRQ
UniProt Q5RI15: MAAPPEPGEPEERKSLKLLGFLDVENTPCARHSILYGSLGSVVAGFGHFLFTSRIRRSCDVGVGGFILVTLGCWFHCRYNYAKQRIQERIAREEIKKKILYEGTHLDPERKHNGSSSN
UniProt Q5JU69: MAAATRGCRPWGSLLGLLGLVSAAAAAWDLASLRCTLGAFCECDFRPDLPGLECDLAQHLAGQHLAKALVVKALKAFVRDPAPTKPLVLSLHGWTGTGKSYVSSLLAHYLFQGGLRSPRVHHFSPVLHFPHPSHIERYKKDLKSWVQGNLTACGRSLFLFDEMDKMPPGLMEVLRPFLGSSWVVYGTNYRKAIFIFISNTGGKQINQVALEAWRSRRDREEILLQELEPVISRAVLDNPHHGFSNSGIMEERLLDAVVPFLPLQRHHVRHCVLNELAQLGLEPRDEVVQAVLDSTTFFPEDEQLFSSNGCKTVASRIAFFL

Compound: Nc1nc2c(ncn2[C@@H]2O[C@H](COP(=O)(O)OP(=O)(O)OP(=O)(O)O)[C@@H](O)[C@H]2O)c(=O)[nH]1 [guanosine triphosphate]
Assay: NP40-soluble protein abundance relative to vehicle (solubility fold change) (ratio); higher = more soluble protein in presence of GTP
Summary of the method: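 Across three independent experiments, values are fold changes against the detergent-processed vehicle for each replicate, based on vsn-normalised intensities. The samples were Jurkat crude lysate treated with eight concentrations (0.1 to 10 mM) for 10 min at room temperature and then 3 min at 37 °C. Lysate was solubilised with 0.8% NP40 and benzonase, ultracentrifuged, and the supernatant analysed by TMT-labelled LC-MS/MS.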

| Target | NP40-soluble protein abundance (concentration: 0.1mM) | NP40-soluble protein abundance (concentration: 0.5mM) | NP40-soluble protein abundance (concentration: 1mM) | NP40-soluble protein abundance (concentration: 2mM) | NP40-soluble protein abundance (concentration: 4mM) | NP40-soluble protein abundance (concentration: 6mM) | NP40-soluble protein abundance (concentration: 8mM) | NP40-soluble protein abundance (concentration: 10mM) |
| --- | --- | --- | --- | --- | --- | --- | --- | --- |
| ACSF3 (UniProt Q4G176) | 1.06 ± 0.066 | 1.06 ± 0.088 | 0.928 ± 0.037 | 0.94 ± 0.084 | 0.908 ± 0.058 | 0.913 ± 0.036 | 0.844 ± 0.033 | 0.845 ± 0.11 |
| RABEP1 (UniProt Q15276) | 0.978 ± 0.034 | 0.956 ± 0.033 | 0.97 ± 0.041 | 0.945 ± 0.065 | 0.927 ± 0.056 | 0.935 ± 0.062 | 0.956 ± 0.016 | 0.943 ± 0.034 |
| NCOA2 (UniProt Q15596) | 1.07 ± 0.094 | 1.02 ± 0.03 | 1.08 ± 0.16 | 1.03 ± 0.11 | 0.967 ± 0.11 | 0.984 ± 0.033 | 1.01 ± 0.095 | 1.04 ± 0.086 |
| UniProt Q14814 and related entries | 0.947 ± 0.02 | 0.979 ± 0.035 | 0.975 ± 0.021 | 0.987 ± 0.081 | 0.931 ± 0.092 | 0.959 ± 0.11 | 0.935 ± 0.052 | 1.05 ± 0.082 |
| HECTD3 (UniProt Q5T447) | 1.05 ± 0.12 | 1.14 ± 0.082 | 1.01 ± 0.099 | 1.08 ± 0.17 | 1.14 ± 0.19 | 1.2 ± 0.22 | 1.27 ± 0.27 | 1.29 ± 0.33 |
| UniProt Q14865 | 0.987 ± 0.049 | 1.03 ± 0.14 | 1.06 ± 0.068 | 1.03 ± 0.11 | 1.1 ± 0.12 | 1.05 ± 0.093 | 1.09 ± 0.083 | 1.09 ± 0.12 |
| UniProt Q3MHD2 and related entries | 0.9 ± 0.11 | 0.925 ± 0.09 | 0.924 ± 0.097 | 0.926 ± 0.1 | 0.93 ± 0.086 | 0.952 ± 0.075 | 0.977 ± 0.1 | 1.01 ± 0.1 |
| GINS1 (UniProt Q14691) | 1.03 ± 0.032 | 1.01 ± 0.05 | 0.9549 ± 0.0051 | 0.974 ± 0.028 | 0.938 ± 0.068 | 0.94 ± 0.033 | 0.929 ± 0.054 | 0.929 ± 0.07 |
| UniProt Q5SQI0 and related entries | 1.02 ± 0.085 | 1.01 ± 0.13 | 0.993 ± 0.13 | 1.02 ± 0.15 | 0.974 ± 0.1 | 1.01 ± 0.074 | 0.968 ± 0.048 | 0.978 ± 0.14 |
| UniProt Q5MIZ7 and related entries | 0.965 ± 0.013 | 0.987 ± 0.019 | 0.955 ± 0.023 | 0.923 ± 0.039 | 0.913 ± 0.015 | 0.908 ± 0.046 | 0.962 ± 0.072 | 0.97 ± 0.034 |
| EEA1 (UniProt Q15075) | 0.937 ± 0.075 | 0.913 ± 0.09 | 0.954 ± 0.099 | 0.897 ± 0.12 | 0.907 ± 0.12 | 0.895 ± 0.11 | 0.921 ± 0.07 | 0.932 ± 0.098 |
| HSDL1 (UniProt Q3SXM5) | 1.13 ± 0.21 | 1.17 ± 0.16 | 0.98 ± 0.065 | 1.01 ± 0.27 | 0.98 ± 0.16 | 0.958 ± 0.097 | 0.896 ± 0.045 | 0.897 ± 0.089 |
| ZC3H13 (UniProt Q5T200) | 1.01 ± 0.055 | 1.02 ± 0.063 | 1.07 ± 0.054 | 1.08 ± 0.063 | 1.12 ± 0.059 | 1.12 ± 0.055 | 1.24 ± 0.099 | 1.18 ± 0.1 |
| UniProt Q15057 and related entries | 0.995 ± 0.038 | 1.02 ± 0.043 | 0.929 ± 0.032 | 0.941 ± 0.048 | 0.896 ± 0.054 | 0.91 ± 0.027 | 0.881 ± 0.02 | 0.907 ± 0.043 |
| UniProt Q5M775 and related entries | 0.963 ± 0.045 | 1.03 ± 0.13 | 0.926 ± 0.11 | 0.905 ± 0.08 | 0.965 ± 0.073 | 1.04 ± 0.021 | 1.08 ± 0.086 | 1.06 ± 0.054 |
| BOLA3 (UniProt Q53S33) | 0.893 ± 0.02 | 0.843 ± 0.047 | 0.962 ± 0.065 | 0.982 ± 0.03 | 0.953 ± 0.022 | 0.966 ± 0.061 | 0.925 ± 0.09 | 1.01 ± 0.042 |
| UniProt Q14693 and related entries | 1.07 ± 0.04 | 1.01 ± 0.062 | 1.05 ± 0.068 | 1.05 ± 0.02 | 1.02 ± 0.074 | 1.03 ± 0.043 | 0.99 ± 0.032 | 0.994 ± 0.051 |
| UniProt Q16401 and related entries | 1.03 ± 0.049 | 1.02 ± 0.046 | 1.01 ± 0.048 | 1.02 ± 0.085 | 1.01 ± 0.066 | 0.987 ± 0.09 | 0.976 ± 0.058 | 0.955 ± 0.043 |
| TOMM34 (UniProt Q15785) | 0.945 ± 0.08 | 0.889 ± 0.075 | 0.971 ± 0.12 | 0.944 ± 0.13 | 0.903 ± 0.11 | 0.921 ± 0.1 | 0.919 ± 0.1 | 0.938 ± 0.1 |
| GNPTAB (UniProt Q3T906) | 0.997 ± 0.085 | 1.03 ± 0.068 | 1.08 ± 0.043 | 1.1 ± 0.035 | 1.08 ± 0.055 | 1.12 ± 0.02 | 1.14 ± 0.11 | 1.17 ± 0.079 |
| UniProt Q4KMQ2 and related entries | 1.07 ± 0.03 | 1.04 ± 0.022 | 0.976 ± 0.056 | 0.989 ± 0.017 | 0.978 ± 0.044 | 0.967 ± 0.039 | 0.951 ± 0.077 | 0.918 ± 0.025 |
| UniProt Q504Q3 and related entries | 1.1 ± 0.05 | 1.06 ± 0.059 | 1.03 ± 0.031 | 1.04 ± 0.052 | 1.06 ± 0.078 | 0.981 ± 0.066 | 0.991 ± 0.11 | 0.936 ± 0.087 |
| UniProt Q53GL0 and related entries | 1.15 ± 0.09 | 1.16 ± 0.079 | 1.28 ± 0.16 | 1.27 ± 0.29 | 1.3 ± 0.064 | 1.31 ± 0.12 | 1.24 ± 0.13 | 1.281 ± 0.0026 |
| UniProt Q15843 and related entries | 1.1 ± 0.29 | 0.839 ± 0.092 | 1.25 ± 0.31 | 0.955 ± 0.21 | 1.09 ± 0.29 | 0.994 ± 0.18 | 1.11 ± 0.4 | 1.07 ± 0.25 |
| UniProt Q5SRE5 and related entries | 1.17 ± 0.11 | 1.13 ± 0.051 | 1.03 ± 0.13 | 1.01 ± 0.13 | 1.13 ± 0.024 | 1.11 ± 0.088 | 1.03 ± 0.029 | 1.08 ± 0.046 |
| UniProt Q5RI15 and related entries | 0.954 ± 0.12 | 0.973 ± 0.17 | 1.02 ± 0.086 | 0.908 ± 0.16 | 0.895 ± 0.13 | 0.943 ± 0.15 | 1.02 ± 0.12 | 0.902 ± 0.12 |
| UniProt Q5T4S7 and related entries | 1.07 ± 0.081 | 1.13 ± 0.15 | 1.15 ± 0.19 | 1.21 ± 0.22 | 1.25 ± 0.25 | 1.24 ± 0.27 | 1.24 ± 0.27 | 1.18 ± 0.25 |
| Q5QPA5 and related entries (UniProt Q9NVS2) | 1.06 ± 0.21 | 1.2 ± 0.43 | 1.29 ± 0.29 | 1.45 ± 0.41 | 1.43 ± 0.44 | 1.43 ± 0.47 | 1.35 ± 0.44 | 1.35 ± 0.49 |
| VPS26B (UniProt Q4G0F5) | 1.04 ± 0.079 | 1.01 ± 0.12 | 0.89 ± 0.11 | 0.953 ± 0.13 | 0.954 ± 0.077 | 0.869 ± 0.09 | 0.8173 ± 0.0071 | 0.822 ± 0.077 |
| TOR2A (UniProt Q5JU69) | 1.11 ± 0.031 | 1.11 ± 0.062 | 1.12 ± 0.11 | 1.14 ± 0.16 | 1.11 ± 0.15 | 1.16 ± 0.11 | 1.14 ± 0.12 | 1.09 ± 0.14 |

Record cards, as listed above:
UniProt Q15843 and related entries as listed: NP40-soluble protein abundance (concentration: 0.1mM): 1.1 ± 0.29; NP40-soluble protein abundance (concentration: 0.5mM): 0.839 ± 0.092; NP40-soluble protein abundance (concentration: 1mM): 1.25 ± 0.31; NP40-soluble protein abundance (concentration: 2mM): 0.955 ± 0.21; NP40-soluble protein abundance (concentration: 4mM): 1.09 ± 0.29; NP40-soluble protein abundance (concentration: 6mM): 0.994 ± 0.18; NP40-soluble protein abundance (concentration: 8mM): 1.11 ± 0.4; NP40-soluble protein abundance (concentration: 10mM): 1.07 ± 0.25
ACSF3 (UniProt Q4G176) as listed: NP40-soluble protein abundance (concentration: 0.1mM): 1.06 ± 0.066; NP40-soluble protein abundance (concentration: 0.5mM): 1.06 ± 0.088; NP40-soluble protein abundance (concentration: 1mM): 0.928 ± 0.037; NP40-soluble protein abundance (concentration: 2mM): 0.94 ± 0.084; NP40-soluble protein abundance (concentration: 4mM): 0.908 ± 0.058; NP40-soluble protein abundance (concentration: 6mM): 0.913 ± 0.036; NP40-soluble protein abundance (concentration: 8mM): 0.844 ± 0.033; NP40-soluble protein abundance (concentration: 10mM): 0.845 ± 0.11
